The numbers were not newly measured in patent US20260297035A1, “PROTEIN KINASE INHIBITORS AND USES THEREOF” (DELiver Therapeutics, Inc., priority 2023, published 2026), which cites them from elsewhere.

Series [1] has as its system ABL1 G250E. The following applies: control inhibitor; Tyr 02; ATP 5 μM; cited from earlier work.
Series [2] concerns RET-S891A. Conditions: control inhibitor; Tyr 06; ATP 10 uM; cited from earlier work.
Series [3] relates to ABL1 Y253F. The following applies: control inhibitor; Tyr 02; ATP 10 μM; cited from earlier work.
The test system of series [4] is ABL1 F317I. Conditions: control inhibitor; Tyr 02; ATP 10 μM; cited from earlier work.
Series [5] has as its system NTRK3 (TRKC). The following applies: control inhibitor; Tyr 01; ATP 50 uM; cited from earlier work.
The subject of series [6] is DDR2-N456S. The following applies: control inhibitor; Tracer 236 at 1 nM; cited from earlier work.
Series [7] concerns ABL1 E255K. The following applies: control inhibitor; Tyr 02; ATP 5 μM; cited from earlier work.

Regarding `CN[C@@H]1C[C@H]2O[C@@](C)([C@@H]1OC)n1c3ccccc3c3c4c(c5c6ccccc6n2c5c31)C(=O)NC4` [Staurosporine], the IC50 (commonly the point on the concentration scale where inhibition reaches its midpoint) in series [1] is 29.9 nM; in series [2] it was 0.721 nM; in series [3], 44.1 nM; in series [4], 205 nM; in series [5], 1.94 nM; in series [6] it was 0.134 nM. The 50% inhibitory concentration (IC50) in series [7] is 71.1 nM.
